Data published in publication PMC10201418.
These are yes or no findings as the source states them, for the method shown. Binding seen in cells or lysates may run through a third protein. These calls come from enrichment with a bait or labelling near it, and not all partners need be listed. Tags and fused reporters may be left off the sequences shown.

Amino acid sequences for entries named in this document (tags omitted).
UniProt P10644: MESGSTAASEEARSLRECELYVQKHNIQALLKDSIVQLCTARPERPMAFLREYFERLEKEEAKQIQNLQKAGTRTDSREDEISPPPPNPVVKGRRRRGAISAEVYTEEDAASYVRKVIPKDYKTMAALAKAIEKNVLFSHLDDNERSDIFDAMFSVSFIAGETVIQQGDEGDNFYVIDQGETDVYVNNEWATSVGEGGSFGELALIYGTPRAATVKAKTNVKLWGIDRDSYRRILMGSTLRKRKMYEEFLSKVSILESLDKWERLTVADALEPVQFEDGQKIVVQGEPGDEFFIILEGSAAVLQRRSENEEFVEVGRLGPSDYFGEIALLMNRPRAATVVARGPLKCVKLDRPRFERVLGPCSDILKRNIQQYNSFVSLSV
UniProt P12956: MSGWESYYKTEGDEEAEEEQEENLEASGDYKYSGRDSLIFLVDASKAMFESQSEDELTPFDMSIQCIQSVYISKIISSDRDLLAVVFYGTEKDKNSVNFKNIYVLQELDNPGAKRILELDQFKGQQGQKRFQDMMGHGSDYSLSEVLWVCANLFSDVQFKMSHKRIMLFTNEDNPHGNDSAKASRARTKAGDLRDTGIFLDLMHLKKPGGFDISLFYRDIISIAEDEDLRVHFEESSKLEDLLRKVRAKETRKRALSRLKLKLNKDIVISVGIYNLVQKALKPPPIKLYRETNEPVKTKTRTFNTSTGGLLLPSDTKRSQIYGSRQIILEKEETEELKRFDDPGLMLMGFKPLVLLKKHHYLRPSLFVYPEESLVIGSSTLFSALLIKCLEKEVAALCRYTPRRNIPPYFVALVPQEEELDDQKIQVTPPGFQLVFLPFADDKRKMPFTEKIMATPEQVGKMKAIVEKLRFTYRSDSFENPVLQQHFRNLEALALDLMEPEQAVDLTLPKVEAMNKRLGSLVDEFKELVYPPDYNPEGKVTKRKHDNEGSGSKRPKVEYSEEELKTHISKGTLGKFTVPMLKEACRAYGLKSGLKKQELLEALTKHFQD
UniProt P67870: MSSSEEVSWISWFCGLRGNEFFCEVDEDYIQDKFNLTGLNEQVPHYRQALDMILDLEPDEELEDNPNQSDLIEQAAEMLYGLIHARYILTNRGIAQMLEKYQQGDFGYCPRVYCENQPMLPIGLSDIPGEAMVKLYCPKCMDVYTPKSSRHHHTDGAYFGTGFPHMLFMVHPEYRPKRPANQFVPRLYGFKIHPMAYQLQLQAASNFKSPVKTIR
UniProt P13010: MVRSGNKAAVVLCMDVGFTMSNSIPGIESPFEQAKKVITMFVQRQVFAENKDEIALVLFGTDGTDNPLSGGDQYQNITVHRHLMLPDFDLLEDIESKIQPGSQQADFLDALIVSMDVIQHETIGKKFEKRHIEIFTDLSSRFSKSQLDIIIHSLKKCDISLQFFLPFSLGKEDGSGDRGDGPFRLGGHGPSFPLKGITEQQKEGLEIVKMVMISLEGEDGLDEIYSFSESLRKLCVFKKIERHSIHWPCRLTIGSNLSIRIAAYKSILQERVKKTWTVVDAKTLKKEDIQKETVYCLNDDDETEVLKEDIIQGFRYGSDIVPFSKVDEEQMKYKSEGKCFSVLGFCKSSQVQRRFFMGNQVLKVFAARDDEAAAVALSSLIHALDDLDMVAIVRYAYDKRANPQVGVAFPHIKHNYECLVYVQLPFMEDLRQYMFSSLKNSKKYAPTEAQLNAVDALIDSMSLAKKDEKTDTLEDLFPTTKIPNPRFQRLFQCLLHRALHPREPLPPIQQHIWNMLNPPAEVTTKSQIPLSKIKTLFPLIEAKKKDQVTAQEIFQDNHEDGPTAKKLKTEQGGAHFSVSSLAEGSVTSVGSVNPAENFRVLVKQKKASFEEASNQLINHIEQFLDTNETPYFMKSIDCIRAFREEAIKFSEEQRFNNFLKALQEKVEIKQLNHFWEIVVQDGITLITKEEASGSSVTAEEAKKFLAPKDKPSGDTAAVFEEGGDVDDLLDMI
UniProt Q9Y2H1: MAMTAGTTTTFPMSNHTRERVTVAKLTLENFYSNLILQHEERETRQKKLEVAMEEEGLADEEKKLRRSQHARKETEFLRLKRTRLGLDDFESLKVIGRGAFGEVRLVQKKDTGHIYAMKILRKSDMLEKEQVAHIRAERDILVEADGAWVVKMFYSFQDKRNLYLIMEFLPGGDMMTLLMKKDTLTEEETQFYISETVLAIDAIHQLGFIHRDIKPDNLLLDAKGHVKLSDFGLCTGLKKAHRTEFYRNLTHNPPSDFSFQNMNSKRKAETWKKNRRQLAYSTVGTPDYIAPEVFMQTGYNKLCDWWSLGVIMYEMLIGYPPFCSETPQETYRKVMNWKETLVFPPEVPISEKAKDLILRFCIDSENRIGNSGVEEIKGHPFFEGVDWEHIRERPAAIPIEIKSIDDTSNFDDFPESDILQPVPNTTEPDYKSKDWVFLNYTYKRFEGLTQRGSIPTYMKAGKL
UniProt Q9NR30: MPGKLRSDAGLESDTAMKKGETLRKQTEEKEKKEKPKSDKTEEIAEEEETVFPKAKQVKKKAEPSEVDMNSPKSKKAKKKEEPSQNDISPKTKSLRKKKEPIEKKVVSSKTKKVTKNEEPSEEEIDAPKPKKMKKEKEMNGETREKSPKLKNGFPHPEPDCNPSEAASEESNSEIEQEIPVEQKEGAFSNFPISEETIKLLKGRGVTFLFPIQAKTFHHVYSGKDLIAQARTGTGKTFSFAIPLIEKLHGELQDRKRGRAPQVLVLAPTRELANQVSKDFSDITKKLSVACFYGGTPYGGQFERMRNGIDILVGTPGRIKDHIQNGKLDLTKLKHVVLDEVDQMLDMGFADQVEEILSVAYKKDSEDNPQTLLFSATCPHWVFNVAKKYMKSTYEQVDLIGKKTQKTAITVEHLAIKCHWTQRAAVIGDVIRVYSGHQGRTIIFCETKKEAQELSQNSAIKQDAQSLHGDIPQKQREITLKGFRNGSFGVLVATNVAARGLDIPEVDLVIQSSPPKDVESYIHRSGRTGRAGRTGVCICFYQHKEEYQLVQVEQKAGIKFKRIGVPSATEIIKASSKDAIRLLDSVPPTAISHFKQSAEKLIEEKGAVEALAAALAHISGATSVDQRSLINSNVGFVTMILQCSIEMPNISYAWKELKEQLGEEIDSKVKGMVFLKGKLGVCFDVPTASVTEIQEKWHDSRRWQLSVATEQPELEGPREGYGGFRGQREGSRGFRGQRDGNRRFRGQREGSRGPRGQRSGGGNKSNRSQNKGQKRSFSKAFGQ

T1: FLAG-tagged IRF1 (FLAG-IRF1 or IRF1-FLAG), bait of the proteomics screen (UniProt P10914)
T1 sequence: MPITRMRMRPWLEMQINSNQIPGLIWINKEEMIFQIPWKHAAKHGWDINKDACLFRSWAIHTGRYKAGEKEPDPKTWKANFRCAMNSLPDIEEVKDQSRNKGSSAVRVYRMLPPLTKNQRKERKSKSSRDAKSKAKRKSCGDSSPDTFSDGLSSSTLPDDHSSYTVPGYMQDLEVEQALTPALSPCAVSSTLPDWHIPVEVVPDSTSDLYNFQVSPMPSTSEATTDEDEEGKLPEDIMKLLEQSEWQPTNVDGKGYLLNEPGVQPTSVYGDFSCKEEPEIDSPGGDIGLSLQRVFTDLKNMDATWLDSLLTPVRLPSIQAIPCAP

B1: TAB1 (protein, UniProt Q15750 1-504)
chain: MAAQRRSLLQSEQQPSWTDDLPLCHLSGVGSASNRSYSADGKGTESHPPEDSWLKFRSENNCFLYGVFNGYDGNRVTNFVAQRLSAELLLGQLNAEHAEADVRRVLLQAFDVVERSFLESIDDALAEKASLQSQLPEGVPQHQLPPQYQKILERLKTLEREISGGAMAVVAVLLNNKLYVANVGTNRALLCKSTVDGLQVTQLNVDHTTENEDELFRLSQLGLDAGKIKQVGIICGQESTRRIGDYKVKYGYTDIDLLSAAKSKPIIAEPEIHGAQPLDGVTGFLVLMSEGLYKALEAAHGPGQANQEIAAMIDTEFAKQTSLDAVAQAVVDRVKRIHSDTFASGGERARFCPRHEDMTLLVRNFGYPLGEMSQPTPSPAPAAGGRVYPVSVPYSSAQSTSKTSVTLSLVMPSQGQMVNGAHSASTLDEATPTLTNQSPTLTLQSTNTHTQSSSSSSDGGLFRSRPAHSLPPGEDGRVEPYVDFAEFYRLWSVDHGEQSVVTAP
B2: TAB3 (protein, UniProt Q8N5C8 1-712)
chain: MAQSSPQLDIQVLHDLRQRFPEIPEGVVSQCMLQNNNNLEACCRALSQESSKYLYMEYHSPDDNRMNRNRLLHINLGIHSPSSYHPGDGAQLNGGRTLVHSSSDGHIDPQHAAGKQLICLVQEPHSAPAVVAATPNYNPFFMNEQNRSAATPPSQPPQQPSSMQTGMNPSAMQGPSPPPPPPSYMHIPRYSTNPITVTVSQNLPSGQTVPRALQILPQIPSNLYGSPGSIYIRQTSQSSSGRQTPQSTPWQSSPQGPVPHYSQRPLPVYPHQQNYQPSQYSPKQQQIPQSAYHSPPPSQCPSPFSSPQHQVQPSQLGHIFMPPSPSTTPPHPYQQGPPSYQKQGSHSVAYLPYTASSLSKGSMKKIEITVEPSQRPGTAINRSPSPISNQPSPRNQHSLYTATTPPSSSPSRGISSQPKPPFSVNPVYITYTQPTGPSCTPSPSPRVIPNPTTVFKITVGRATTENLLNLVDQEERSAAPEPIQPISVIPGSGGEKGSHKYQRSSSSGSDDYAYTQALLLHQRARMERLAKQLKLEKEELERLKSEVNGMEHDLMQRRLRRVSCTTAIPTPEEMTRLRSMNRQLQINVDCTLKEVDLLQSRGNFDPKAMNNFYDNIEPGPVVPPKPSKKDSSDPCTIERKARRISVTSKVQADIHDTQAAAADEHRTGSTQSPRTQPRDEDYEGAPWNCDSCTFLNHPALNRCEQCEMPRYT

The molecules below were run against T1, FLAG-tagged IRF1 (FLAG-IRF1 or IRF1-FLAG), bait of the proteomics screen (assay: affinity purification with mass spectrometry).

| binding | Molecule |
| --- | --- |
| binds | PRKAR1A (from UniProt P10644 1-381) |
| binds | XRCC6 (from UniProt P12956 1-609) |
| binds | CSNK2B, regulatory subunit of casein kinase 2 (endogenous) (from UniProt P67870 1-215) |
| binds | XRCC5 (from UniProt P13010 1-732) |
| binds | STK38L (from UniProt Q9Y2H1 1-464) |
| binds | DDX21 (from UniProt Q9NR30 1-783) |
| binds | B1 |
| binds | B2 |
